Measured values as given in publication PMC7078350.
These are yes or no findings as the source states them, for the method shown. Where a sequence is shown, tags or fusion partners need not be part of it.

Protein sequences, listed by entry. Tags and fused reporters are not part of them.
UniProt Q2LAE1: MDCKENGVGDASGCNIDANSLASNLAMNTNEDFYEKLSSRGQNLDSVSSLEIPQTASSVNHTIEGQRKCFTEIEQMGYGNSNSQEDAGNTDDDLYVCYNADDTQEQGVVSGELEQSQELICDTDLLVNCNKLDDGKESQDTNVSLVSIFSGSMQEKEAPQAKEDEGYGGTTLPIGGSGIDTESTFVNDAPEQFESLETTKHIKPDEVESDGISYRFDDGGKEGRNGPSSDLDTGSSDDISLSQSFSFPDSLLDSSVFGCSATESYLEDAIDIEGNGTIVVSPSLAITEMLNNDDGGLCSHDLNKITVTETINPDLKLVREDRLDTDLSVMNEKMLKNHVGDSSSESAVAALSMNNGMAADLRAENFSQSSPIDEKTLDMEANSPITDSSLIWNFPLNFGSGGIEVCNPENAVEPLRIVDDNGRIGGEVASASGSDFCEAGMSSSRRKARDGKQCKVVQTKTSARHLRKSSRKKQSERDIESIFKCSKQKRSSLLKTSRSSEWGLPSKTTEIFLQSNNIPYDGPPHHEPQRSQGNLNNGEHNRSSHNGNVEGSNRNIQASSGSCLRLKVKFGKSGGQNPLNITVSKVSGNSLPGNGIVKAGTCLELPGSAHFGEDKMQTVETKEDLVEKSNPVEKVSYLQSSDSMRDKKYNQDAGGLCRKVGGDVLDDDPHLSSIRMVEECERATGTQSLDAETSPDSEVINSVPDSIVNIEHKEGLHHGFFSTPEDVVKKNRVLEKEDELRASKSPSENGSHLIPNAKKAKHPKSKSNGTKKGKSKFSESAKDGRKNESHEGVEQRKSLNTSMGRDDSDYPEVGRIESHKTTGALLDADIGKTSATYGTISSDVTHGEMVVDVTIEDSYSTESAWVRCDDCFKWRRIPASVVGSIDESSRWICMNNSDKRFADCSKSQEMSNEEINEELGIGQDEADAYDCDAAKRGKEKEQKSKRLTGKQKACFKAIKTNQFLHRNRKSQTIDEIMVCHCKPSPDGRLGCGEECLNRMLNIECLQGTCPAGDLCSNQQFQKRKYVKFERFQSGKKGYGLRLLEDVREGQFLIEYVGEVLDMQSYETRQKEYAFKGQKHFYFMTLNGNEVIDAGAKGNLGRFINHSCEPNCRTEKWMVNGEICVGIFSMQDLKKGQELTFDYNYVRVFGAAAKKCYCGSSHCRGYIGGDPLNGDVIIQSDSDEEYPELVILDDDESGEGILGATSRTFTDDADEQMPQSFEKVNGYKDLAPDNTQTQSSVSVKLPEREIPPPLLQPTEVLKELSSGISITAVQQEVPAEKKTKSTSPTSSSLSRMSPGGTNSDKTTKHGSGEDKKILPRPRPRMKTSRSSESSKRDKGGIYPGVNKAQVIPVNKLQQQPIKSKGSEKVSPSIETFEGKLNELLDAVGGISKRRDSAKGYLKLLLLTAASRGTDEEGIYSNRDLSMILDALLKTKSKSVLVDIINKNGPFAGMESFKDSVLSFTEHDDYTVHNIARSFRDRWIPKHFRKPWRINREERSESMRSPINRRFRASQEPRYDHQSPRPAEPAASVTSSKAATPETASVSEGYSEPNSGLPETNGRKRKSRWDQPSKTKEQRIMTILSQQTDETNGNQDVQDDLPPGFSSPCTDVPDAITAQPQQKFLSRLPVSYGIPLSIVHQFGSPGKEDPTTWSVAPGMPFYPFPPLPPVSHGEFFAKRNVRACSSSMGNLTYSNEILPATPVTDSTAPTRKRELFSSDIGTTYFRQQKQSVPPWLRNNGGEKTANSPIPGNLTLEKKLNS

Target: T1, Protein kinase Kin28 fused to the Gal4 DNA binding domain (UniProt P06242)
T1 sequence: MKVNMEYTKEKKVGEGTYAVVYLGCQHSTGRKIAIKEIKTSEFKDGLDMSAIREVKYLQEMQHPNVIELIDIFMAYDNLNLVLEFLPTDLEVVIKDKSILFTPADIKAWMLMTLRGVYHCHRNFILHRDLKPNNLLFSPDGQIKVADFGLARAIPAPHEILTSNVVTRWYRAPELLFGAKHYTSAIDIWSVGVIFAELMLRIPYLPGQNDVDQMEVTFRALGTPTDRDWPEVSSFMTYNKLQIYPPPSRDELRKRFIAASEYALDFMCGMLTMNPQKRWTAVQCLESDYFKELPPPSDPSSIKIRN
Test: two-hybrid; tethered yeast two-hybrid in strain AH109; SDG8 or SDG26 on the Gal4 activation domain, Kin28, CTD-Kin28 or CTD-mKin28 on the Gal4 DNA binding domain; growth 4 days at 30°C on SD-LWH + 25 mM 3AT and SD-LWAH, SD-LW as control

binding: no binding
Substance: SDG8, full length, fused to the Gal4 activation domain (from UniProt Q2LAE1 1-1759) (enzyme)
